Reference: publication doi:10.1101/2025.10.24.684426 (bioRxiv, 2025)
No constants are given. Whether binding was seen depends on the method and setting. Tags and fused reporters may be left off the sequences shown.

Target: T1, EhCaBP1 (calcium binding protein 1), recombinant (E. histolytica) (UniProt P38505)
T1 sequence: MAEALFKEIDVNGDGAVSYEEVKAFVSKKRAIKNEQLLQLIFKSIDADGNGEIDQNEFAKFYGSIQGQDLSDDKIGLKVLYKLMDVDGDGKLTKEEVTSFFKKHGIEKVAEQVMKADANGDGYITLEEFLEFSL
Experiment: BLI

B1: EhPHDK Peptide 1 (surface of the kinase core) (peptide)
peptide: ILSKLHHPFLVNLYYSFQ
- binding: no binding (tested: 50µM to 550 µM)
